Test results from paper PMC10689479.

Chains of the proteins cited; added tags and fusions are not shown. Lines headed by an entry give the natural chain unless they say otherwise; changes in a name come on top.
UniProt Q9BTC0: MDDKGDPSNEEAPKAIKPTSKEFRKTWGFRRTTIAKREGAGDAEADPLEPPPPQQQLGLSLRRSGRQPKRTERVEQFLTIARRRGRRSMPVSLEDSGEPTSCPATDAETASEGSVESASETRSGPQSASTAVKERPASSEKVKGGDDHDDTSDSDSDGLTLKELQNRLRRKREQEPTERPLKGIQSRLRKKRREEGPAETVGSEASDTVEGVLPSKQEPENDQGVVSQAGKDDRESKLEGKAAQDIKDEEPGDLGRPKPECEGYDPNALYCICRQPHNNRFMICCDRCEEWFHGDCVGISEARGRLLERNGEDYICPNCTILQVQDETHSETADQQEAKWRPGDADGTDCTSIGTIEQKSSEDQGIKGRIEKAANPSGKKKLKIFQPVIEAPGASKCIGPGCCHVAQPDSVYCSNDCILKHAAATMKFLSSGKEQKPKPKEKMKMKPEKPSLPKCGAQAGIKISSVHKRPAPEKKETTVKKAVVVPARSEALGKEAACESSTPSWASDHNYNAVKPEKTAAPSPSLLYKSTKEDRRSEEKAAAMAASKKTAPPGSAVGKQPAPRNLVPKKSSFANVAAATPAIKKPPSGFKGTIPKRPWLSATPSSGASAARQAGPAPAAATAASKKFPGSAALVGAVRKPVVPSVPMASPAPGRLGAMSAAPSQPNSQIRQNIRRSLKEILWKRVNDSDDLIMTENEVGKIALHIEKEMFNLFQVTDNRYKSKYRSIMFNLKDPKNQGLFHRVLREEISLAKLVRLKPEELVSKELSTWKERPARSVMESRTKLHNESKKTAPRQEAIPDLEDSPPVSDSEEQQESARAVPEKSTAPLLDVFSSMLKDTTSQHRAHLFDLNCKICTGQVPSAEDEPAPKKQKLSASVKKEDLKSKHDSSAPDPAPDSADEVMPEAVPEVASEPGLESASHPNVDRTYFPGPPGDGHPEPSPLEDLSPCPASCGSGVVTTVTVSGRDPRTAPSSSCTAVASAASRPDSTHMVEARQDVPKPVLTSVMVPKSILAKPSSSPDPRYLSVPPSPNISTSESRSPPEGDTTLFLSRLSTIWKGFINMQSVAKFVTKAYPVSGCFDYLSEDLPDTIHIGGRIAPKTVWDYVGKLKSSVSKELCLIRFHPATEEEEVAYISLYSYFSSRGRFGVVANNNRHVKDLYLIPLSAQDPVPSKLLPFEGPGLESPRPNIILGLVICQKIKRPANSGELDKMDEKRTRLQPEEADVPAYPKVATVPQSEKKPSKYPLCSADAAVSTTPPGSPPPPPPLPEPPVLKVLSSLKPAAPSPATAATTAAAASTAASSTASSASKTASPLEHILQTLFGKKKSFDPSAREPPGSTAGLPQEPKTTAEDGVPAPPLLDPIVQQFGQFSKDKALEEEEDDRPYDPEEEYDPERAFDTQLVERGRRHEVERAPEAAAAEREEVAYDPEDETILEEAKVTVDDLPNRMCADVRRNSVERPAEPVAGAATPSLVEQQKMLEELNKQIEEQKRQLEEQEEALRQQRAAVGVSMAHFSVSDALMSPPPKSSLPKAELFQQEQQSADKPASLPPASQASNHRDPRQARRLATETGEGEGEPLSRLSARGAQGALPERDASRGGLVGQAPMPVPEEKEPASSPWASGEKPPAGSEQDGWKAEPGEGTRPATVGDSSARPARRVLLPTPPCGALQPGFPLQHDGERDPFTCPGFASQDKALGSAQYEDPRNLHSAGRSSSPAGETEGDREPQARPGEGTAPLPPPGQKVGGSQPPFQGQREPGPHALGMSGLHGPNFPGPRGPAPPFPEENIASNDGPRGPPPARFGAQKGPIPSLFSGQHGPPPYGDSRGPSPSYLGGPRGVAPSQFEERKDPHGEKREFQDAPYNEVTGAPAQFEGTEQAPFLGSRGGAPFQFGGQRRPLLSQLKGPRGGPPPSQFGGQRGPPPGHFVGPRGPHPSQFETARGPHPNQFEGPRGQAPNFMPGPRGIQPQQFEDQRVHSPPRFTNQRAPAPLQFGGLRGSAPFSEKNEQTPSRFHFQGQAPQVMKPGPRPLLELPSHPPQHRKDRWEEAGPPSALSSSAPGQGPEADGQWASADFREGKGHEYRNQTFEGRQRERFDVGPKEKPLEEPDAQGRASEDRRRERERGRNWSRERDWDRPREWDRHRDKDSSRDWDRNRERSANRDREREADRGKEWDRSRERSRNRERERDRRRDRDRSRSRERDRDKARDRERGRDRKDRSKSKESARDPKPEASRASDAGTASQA
UniProt Q92576: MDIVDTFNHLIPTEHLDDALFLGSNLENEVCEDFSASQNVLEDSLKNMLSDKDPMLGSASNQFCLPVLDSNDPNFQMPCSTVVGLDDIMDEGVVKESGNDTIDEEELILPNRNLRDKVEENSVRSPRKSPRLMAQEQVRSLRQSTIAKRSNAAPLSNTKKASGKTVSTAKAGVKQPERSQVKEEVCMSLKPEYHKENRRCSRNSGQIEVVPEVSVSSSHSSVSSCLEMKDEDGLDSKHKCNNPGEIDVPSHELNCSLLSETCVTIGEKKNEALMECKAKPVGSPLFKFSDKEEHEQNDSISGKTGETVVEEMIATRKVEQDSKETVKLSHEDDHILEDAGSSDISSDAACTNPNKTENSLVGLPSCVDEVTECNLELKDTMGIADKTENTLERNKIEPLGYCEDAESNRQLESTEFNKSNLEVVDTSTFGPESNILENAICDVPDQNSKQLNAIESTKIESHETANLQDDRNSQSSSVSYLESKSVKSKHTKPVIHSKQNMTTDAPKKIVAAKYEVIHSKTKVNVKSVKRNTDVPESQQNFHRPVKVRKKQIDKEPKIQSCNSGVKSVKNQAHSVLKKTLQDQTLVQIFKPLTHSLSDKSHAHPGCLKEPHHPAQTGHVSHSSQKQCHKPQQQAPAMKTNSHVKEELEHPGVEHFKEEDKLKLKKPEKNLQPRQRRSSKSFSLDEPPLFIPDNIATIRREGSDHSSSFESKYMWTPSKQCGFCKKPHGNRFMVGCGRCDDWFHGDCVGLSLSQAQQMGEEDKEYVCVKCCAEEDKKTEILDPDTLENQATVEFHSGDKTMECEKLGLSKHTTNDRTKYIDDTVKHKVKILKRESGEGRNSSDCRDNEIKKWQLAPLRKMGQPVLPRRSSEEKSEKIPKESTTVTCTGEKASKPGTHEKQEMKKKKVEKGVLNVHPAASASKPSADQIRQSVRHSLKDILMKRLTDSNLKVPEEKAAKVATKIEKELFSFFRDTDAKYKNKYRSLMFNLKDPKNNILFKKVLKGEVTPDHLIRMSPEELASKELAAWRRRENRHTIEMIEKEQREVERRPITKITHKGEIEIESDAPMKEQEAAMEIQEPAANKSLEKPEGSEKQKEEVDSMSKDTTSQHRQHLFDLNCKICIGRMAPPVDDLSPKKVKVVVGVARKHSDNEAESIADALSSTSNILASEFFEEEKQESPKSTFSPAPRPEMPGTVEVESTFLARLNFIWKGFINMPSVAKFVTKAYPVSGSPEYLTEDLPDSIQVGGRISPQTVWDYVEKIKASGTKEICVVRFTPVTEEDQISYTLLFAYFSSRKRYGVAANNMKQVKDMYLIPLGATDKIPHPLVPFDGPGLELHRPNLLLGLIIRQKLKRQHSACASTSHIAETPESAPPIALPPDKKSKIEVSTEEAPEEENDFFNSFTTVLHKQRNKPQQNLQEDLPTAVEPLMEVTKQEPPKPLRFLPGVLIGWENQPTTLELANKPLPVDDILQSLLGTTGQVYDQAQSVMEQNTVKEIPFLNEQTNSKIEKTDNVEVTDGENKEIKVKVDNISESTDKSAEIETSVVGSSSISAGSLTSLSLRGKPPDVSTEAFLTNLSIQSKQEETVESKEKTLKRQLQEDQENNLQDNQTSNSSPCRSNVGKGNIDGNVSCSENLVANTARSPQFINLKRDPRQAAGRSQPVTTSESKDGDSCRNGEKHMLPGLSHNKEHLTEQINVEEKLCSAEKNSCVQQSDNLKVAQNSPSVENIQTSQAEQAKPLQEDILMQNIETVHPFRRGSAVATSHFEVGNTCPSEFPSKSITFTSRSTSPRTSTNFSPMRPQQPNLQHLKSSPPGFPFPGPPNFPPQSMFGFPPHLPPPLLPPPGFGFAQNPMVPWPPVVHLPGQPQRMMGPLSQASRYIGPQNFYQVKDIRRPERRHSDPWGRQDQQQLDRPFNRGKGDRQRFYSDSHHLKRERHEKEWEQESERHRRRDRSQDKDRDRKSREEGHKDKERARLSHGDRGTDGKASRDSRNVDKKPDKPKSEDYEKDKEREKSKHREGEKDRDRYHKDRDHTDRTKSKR
UniProt Q9H5H4: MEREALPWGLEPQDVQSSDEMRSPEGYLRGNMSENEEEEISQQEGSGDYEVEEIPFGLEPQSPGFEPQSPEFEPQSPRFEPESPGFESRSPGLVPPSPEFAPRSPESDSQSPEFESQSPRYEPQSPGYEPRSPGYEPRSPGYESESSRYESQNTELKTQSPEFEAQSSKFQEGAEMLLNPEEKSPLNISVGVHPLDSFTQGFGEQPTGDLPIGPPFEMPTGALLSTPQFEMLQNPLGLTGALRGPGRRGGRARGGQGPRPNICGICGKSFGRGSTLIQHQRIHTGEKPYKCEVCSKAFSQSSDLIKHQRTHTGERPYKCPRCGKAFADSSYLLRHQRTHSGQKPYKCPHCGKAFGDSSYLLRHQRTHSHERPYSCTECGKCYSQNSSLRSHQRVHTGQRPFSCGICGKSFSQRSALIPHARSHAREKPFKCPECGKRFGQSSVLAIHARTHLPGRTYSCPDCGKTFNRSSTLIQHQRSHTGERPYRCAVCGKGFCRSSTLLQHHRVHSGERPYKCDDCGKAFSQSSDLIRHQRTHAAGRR

Legend:
Experiment in all cases: co-IP; anti-FLAG M2 magnetic beads on lysates of HEK293T transfected with FLAG-DIDO constructs (150 mM NaCl, 0.1% Triton, benzonase), eluted with 3xFLAG peptide, western blot with antibodies against mass spectrometry hits; performed once
FLAG-DIDO3 ∆SPOC = FLAG-DIDO3 ∆SPOC (UniProt Q9BTC0)
FLAG-DIDO1 ∆N = target: FLAG-DIDO1 ∆N
FLAG-DIDO1 = target: FLAG-DIDO1
FLAG-DIDO2 ∆N = target: FLAG-DIDO2 ∆N
FLAG-DIDO2 = target: FLAG-DIDO2
FLAG-DIDO3 ∆N = target: FLAG-DIDO3 ∆N

Molecule	binding (FLAG-DIDO3 ∆SPOC)	binding (FLAG-DIDO1 ∆N)	binding (FLAG-DIDO1)	binding (FLAG-DIDO2 ∆N)	binding (FLAG-DIDO2)	binding (FLAG-DIDO3 ∆N)
PHD finger protein 3 (PHF3), endogenous (from UniProt Q92576 1-2039)	binds	–	–	–	–	–
ZNF768 (from UniProt Q9H5H4 1-540)	binds	–	–	–	–	–
HCFC2 (protein, UniProt Q9Y5Z7 1-792) MAAPSLLNWRRVSSFTGPVPRARHGHRAVAIRELMIIFGGGNEGIADELHVYNTATNQWFLPAVRGDIPPGCAAHGFVCDGTRILVFGGMVEYGRYSNELYELQASRWLWKKVKPHPPPSGLPPCPRLGHSFSLYGNKCYLFGGLANESEDSNNNVPRYLNDFYELELQHGSGVVGWSIPVTKGVVPSPRESHTAVIYCKKDSGSPKMYVFGGMCGARLDDLWQLDLETMSWSKPETKGTVPLPRSLHTASVIGNKMYIFGGWVPHKGENTETSPHDCEWRCTSSFSYLNLDTTEWTTLVSDSQEDKKNSRPRPRAGHCAVAIGTRLYFWSGRDGYKKALNSQVCCKDLWYLDTEKPPAPSQVQLIKATTNSFHVKWDEVSTVEGYLLQLSTDLPYQAASSDSSAAPNMQGVRMDPHRQGSNNIVPNSINDTINSTKTEQPATKETSMKNKPDFKALTDSNAILYPSLASNASNHNSHVVDMLRKNEGPHTSANVGVLSSCLDVRTVIPETSVSSTVSSTQTMVTQQTIKTESSSTNGAVVKDETSLTTFSTKSEVDETYALPATKISRVETHATATPFSKETPSNPVATVKAGERQWCDVGIFKNNTALVSQFYLLPKGKQSISKVGNADVPDYSLLKKQDLVPGTGYRFRVAAINGCGIGPFSKISEFKTCIPGFPGAPSAVRISKNVEGIHLSWEPPTSPSGNILEYSAYLAIRTAQIQDNPSQLVFMRIYCGLKTSCIVTAGQLANAHIDYTSRPAIVFRISAKNEKGYGPATQVRWLQGNNKKAPLN	binds	binds	binds	binds	binds	binds

No constants are given. Whether binding was seen depends on the method and setting. In cells and extracts the contact can be indirect. Binding calls can cover weak binding; strength is not graded here.
